Data as given in article PMC4275181.
These are yes or no findings as the source states them, for the method shown.

Biological target: CYT-18 CTD (isolated C-terminal anticodon-binding domain of the N. crassa mtTyrRS) (Neurospora crassa) (UniProt P12063)
Assay: SAXS; molecular weight from forward scattering I(0) against a bovine serum albumin standard; free protein at at least three concentrations in 100 mM KCl, 5 mM MgCl2, 10 mM Tris-HCl (pH 7.5), 5% glycerol; both purified

binding: no binding
B1: CYT-18 CTD (isolated C-terminal anticodon-binding domain of the N. crassa mtTyrRS) (domain or fragment, UniProt P12063 448-583)
chain: GTLNNAPRIDMILPESLIMGKSIGRILYAAGLASSTTEGHKLAAAQGCYVGGAHRAGGENVTMNPDLISFMPVKLWFPGETQRYLINGNLLILRKGKHNVRVIQMVSDVEYAASGQTYPGQSFTGAVRKLNEIMKNL
